Chains of the proteins cited; added tags and fusions are not shown.
UniProt Q14160: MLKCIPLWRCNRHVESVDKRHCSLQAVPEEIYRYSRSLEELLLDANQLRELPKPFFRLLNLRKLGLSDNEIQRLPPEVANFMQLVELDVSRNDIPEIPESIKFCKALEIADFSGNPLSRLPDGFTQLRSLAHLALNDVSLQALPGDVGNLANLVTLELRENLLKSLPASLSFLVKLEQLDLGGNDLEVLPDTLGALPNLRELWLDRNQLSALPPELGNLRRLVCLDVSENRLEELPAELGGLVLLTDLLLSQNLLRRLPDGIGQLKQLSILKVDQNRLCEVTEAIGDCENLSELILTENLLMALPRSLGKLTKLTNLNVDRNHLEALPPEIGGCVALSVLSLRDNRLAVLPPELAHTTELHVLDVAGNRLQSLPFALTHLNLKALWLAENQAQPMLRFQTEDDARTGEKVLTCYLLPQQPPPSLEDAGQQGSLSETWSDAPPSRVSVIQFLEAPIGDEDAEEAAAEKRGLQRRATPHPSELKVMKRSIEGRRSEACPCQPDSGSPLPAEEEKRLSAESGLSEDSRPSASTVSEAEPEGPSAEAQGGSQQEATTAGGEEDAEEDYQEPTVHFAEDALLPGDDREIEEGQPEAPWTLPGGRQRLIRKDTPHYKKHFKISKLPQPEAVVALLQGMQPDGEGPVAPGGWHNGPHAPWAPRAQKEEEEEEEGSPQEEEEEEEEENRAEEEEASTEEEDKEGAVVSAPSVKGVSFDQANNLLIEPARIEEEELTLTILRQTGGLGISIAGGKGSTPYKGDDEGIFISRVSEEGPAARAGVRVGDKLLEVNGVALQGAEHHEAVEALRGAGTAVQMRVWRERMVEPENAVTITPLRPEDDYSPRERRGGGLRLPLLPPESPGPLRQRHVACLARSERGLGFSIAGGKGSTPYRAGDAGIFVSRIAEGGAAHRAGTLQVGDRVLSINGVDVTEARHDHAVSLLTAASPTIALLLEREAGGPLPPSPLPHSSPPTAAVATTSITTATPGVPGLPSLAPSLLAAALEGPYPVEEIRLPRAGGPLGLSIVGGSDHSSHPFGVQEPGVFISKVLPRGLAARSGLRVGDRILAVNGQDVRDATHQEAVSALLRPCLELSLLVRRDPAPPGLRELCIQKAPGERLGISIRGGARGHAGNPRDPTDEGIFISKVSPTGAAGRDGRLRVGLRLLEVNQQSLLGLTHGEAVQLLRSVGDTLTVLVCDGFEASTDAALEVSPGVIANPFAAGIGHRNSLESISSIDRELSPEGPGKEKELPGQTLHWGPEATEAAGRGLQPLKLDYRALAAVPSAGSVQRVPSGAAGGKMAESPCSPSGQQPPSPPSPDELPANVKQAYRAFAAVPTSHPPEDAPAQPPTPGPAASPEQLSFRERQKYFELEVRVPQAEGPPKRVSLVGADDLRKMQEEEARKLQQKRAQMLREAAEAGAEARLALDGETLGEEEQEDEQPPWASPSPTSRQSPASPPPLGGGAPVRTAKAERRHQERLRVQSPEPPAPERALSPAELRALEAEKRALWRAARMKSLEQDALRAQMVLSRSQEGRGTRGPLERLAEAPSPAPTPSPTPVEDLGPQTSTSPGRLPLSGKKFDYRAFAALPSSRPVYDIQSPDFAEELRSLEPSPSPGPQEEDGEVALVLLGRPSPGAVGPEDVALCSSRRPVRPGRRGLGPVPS
UniProt O75396: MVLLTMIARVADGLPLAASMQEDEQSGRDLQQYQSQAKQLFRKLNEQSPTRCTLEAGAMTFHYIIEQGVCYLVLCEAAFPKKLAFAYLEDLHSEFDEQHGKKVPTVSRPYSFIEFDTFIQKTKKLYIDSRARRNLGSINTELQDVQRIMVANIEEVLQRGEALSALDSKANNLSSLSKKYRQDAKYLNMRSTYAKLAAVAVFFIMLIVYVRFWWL
UniProt Q9HAV4: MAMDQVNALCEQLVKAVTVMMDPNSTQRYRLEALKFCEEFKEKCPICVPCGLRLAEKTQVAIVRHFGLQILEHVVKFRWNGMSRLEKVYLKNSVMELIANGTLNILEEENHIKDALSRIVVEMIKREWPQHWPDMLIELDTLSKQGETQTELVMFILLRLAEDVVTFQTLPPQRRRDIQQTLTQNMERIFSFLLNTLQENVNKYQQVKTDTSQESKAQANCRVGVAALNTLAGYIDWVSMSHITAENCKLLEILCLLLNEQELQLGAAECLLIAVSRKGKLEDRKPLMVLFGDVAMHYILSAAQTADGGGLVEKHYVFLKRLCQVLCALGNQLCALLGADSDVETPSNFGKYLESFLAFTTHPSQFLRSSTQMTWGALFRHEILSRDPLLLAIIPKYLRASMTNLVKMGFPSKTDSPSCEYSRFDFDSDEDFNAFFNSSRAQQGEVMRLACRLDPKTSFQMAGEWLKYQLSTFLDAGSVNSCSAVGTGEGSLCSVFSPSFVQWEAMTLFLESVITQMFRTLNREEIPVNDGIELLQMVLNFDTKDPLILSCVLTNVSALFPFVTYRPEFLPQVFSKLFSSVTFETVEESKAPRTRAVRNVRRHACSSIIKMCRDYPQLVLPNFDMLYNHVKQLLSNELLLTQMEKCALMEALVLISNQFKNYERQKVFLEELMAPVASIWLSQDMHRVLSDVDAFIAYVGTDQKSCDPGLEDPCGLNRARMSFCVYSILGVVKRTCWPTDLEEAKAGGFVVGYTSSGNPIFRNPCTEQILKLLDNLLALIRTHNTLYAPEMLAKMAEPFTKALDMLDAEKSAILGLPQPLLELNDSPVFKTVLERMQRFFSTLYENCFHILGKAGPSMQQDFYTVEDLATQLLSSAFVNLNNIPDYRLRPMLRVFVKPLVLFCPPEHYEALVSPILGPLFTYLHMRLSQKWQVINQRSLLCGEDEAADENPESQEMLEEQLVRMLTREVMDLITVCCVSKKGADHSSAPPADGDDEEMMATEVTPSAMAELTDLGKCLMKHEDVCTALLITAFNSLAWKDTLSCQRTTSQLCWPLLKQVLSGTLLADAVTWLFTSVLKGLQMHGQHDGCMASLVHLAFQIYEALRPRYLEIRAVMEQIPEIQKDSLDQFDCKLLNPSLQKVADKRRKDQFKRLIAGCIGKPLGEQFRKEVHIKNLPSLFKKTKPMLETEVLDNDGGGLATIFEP
UniProt P61224: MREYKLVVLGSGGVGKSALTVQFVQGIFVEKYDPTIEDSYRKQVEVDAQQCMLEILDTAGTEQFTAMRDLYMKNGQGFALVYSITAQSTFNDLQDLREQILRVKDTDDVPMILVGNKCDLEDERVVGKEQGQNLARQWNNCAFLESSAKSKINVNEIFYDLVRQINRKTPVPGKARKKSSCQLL

According to publication PMC12541299:

B1: SRPRB (protein, UniProt Q9Y5M8 1-271)
chain: MASADSRRVADGGGAGGTFQPYLDTLRQELQQTDPTLLSVVVAVLAVLLTLVFWKLIRSRRSSQRAVLLVGLCDSGKTLLFVRLLTGLYRDTQTSITDSCAVYRVNNNRGNSLTLIDLPGHESLRLQFLERFKSSARAIVFVVDSAAFQREVKDVAEFLYQVLIDSMGLKNTPSFLIACNKQDIAMAKSAKLIQQQLEKELNTLRVTRSAAPSTLDSSSTAPAQLGKKGKEFEFSQLPLKVEFLECSAKGGRGDVGSADIQDLEKWLAKIA
B2: UACA (protein, UniProt Q9BZF9 1-1416)
chain: MKSLKSRLRRQDVPGPASSGAAAASAHAADWNKYDDRLMKAAERGDVEKVTSILAKKGVNPGKLDVEGRSVFHVVTSKGNLECLNAILIHGVDITTSDTAGRNALHLAAKYGHALCLQKLLQYNCPTEHADLQGRTALHDAAMADCPSSIQLLCDHGASVNAKDVDGRTPLVLATQMSRPTICQLLIDRGADVNSRDKQNRTALMLGCEYGCRDAVEVLIKNGADISLLDALGHDSSYYARIGDNLDILTLLKTASENTNKGRELWKKGPSLQQRNLTHMQDEVNVKSHQREHQNIQDLEIENEDLKERLRKIQQEQRILLDKVNGLQLQLNEEVMVADDLESEREKLKSLLAAKEKQHEESLRTIEALKNRFKYFESDHLGSGSHFSNRKEDMLLKQGQMYMADSQCTSPGIPAHMQSRSMLRPLELSLPSQTSYSENEILKKELEAMRTFCESAKQDRLKLQNELAHKVAECKALALECERVKEDSDEQIKQLEDALKDVQKRMYESEGKVKQMQTHFLALKEHLTSEAASGNHRLTEELKDQLKDLKVKYEGASAEVGKLRNQIKQNEMIVEEFKRDEGKLIEENKRLQKELSMCEMEREKKGRKVTEMEGQAKELSAKLALSIPAEKFENMKSSLSNEVNEKAKKLVEMEREHEKSLSEIRQLKRELENVKAKLAQHVKPEEHEQVKSRLEQKSGELGKKITELTLKNQTLQKEIEKVYLDNKLLKEQAHNLTIEMKNHYVPLKVSEDMKKSHDAIIDDLNRKLLDVTQKYTEKKLEMEKLLLENDSLSKDVSRLETVFVPPEKHEKEIIALKSNIVELKKQLSELKKKCGEDQEKIHALTSENTNLKKMMSNQYVPVKTHEEVKMTLNDTLAKTNRELLDVKKKFEDINQEFVKIKDKNEILKRNLENTQNQIKAEYISLAEHEAKMSSLSQSMRKVQDSNAEILANYRKGQEEIVTLHAEIKAQKKELDTIQECIKVKYAPIVSFEECERKFKATEKELKDQLSEQTQKYSVSEEEVKKNKQENDKLKKEIFTLQKDLRDKTVLIEKSHEMERALSRKTDELNKQLKDLSQKYTEVKNVKEKLVEENAKQTSEILAVQNLLQKQHVPLEQVEALKKSLNGTIENLKEELKSMQRCYEKEQQTVTKLHQLLENQKNSSVPLAEHLQIKEAFEKEVGIIKASLREKEEESQNKMEEVSKLQSEVQNTKQALKKLETREVVDLSKYKATKSDLETQISSLNEKLANLNRKYEEVCEEVLHAKKKEISAKDEKELLHFSIEQEIKDQKERCDKSLTTITELQRRIQESAKQIEAKDNKITELLNDVERLKQALNGLSQLTYTSGNPTKRQSQLIDTLQHQVKSLEQQLADADRQHQEVIAIYRTHLLSAAQGHMDEDVQEALLQIIQMRQGLVC

Key:
Assay in all cases: proximity labelling; TurboID (BioID): HA-TurboID-KRAS induced with doxycycline in HPNE cells, 50 umol/L biotin for 1 hour at 37°C, lysis in 8 mol/L urea, streptavidin beads, LC/MS-MS with LFQ intensities, compared with TurboID alone; biological triplicate
[1] = target: HA-TurboID-KRAS^Q61L (human) (UniProt P01116)
[2] = target: HA-TurboID-KRAS^G12D (human) (UniProt P01116)
[3] = target: HA-TurboID-KRAS^Q61L (human) (UniProt P01116); remark: listed apart in the source

Molecule	binding [1]	binding [2]	binding [3]
SCRIB (from UniProt Q14160 1-1655)	binds	binds	
SEC22B (from UniProt O75396 1-215)	binds		
XPO5 (from UniProt Q9HAV4 1-1204)	binds		
RAP1B (from UniProt P61224 1-184)	binds		
B1			binds
B2			binds

Like-named read-outs stand apart in the source and are kept apart here. No constants are given. Whether binding was seen depends on the method and setting. Binding seen in cells or lysates may run through a third protein. These calls come from enrichment with a bait or labelling near it, and not all partners need be listed.
